Data source: PubChem BioAssay AID1224827 (NIAID, 2016)
Aim: 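Retest primary hits on a TNF reporter with six siRNAs per gene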 (follow-up of hits). System: RAW264.7 G9 mouse macrophage reporter clone. Knock-down reagent: single siRNA against mouse genes, 100 nM siRNA. Time to read-out: siRNA for 2 days, then LPS about 16 h. Conditions: bacterial lipopolysaccharide (LPS), 10 ng/ml, cells fixed after overnight (about 16 h) stimulation. Measured: 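Imaged nuclear TNF reporter intensity, background removed, scaled per plate and to non-targeting control wells, as z-scores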. Reading the numbers: TNF reporter z-score, mean: higher = stronger Tnf promoter reporter signal. Hit rule: 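An siRNA is called active when its mean z-score over replicates is at least +2 or at most -2; control wells get no call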.
This is a random part of about 3,800 reagents tested. In the full data, about 2,200 (57%) are marked active. 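Active means a strong reporter change in either direction; calls are per siRNA, not per gene; qiagen siRNAs gave weaker effects.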 Reagents against one gene are numbered here. Not all columns of the deposit are shown.

TNF reporter z-score, mean, by gene and reagent
Akr1b7 (GeneID 11997): #1 1.54 inactive; #2 -1.61 inactive; #3 -3.15 active; #4 -0.554 inactive; #5 -1.07 inactive; #6 -2.25 active
Qser1 (GeneID 99003): #1 2.38 active; #2 0.1 inactive; #3 -0.18 inactive
Tmem18 (GeneID 211986): #1 0.868 inactive; #2 -2.37 active; #3 -4.4 active; #4 1.35 inactive; #5 -0.745 inactive; #6 1.11 inactive
D6Ertd160e (GeneID 52223): #1 2.53 active; #2 -1.48 inactive; #3 -2.15 active
Rps6kb1 (GeneID 72508): #1 -2.51 active; #2 -3.35 active; #3 -5.02 active; #4 6.08 active; #5 0.433 inactive; #6 -0.0889 inactive
Vamp1 (GeneID 22317): #1 -0.806 inactive; #2 -4.16 active; #3 -5.08 active; #4 1.45 inactive; #5 -0.329 inactive; #6 -0.0644 inactive
Batf3 (GeneID 381319): #1 1.21 inactive; #2 -3.71 active; #3 -4.04 active; #4 4.6 active; #5 0.707 inactive; #6 -3.18 active
Bpifa1 (GeneID 18843): #1 -2.93 active; #2 -2.83 active; #3 -3.19 active; #4 0.482 inactive; #5 -0.446 inactive; #6 -3.12 active
Neurod1 (GeneID 18012): #1 -2.25 active; #2 -3.17 active; #3 -4.32 active; #4 1.54 inactive; #5 0.257 inactive; #6 -3.79 active
Naa50 (GeneID 72117): #1 -2.13 active; #2 -2.63 active; #3 -2.62 active; #4 3.52 active; #5 3.1 active; #6 -0.956 inactive
Ubqln2 (GeneID 54609): #1 -0.708 inactive; #2 -3.13 active; #3 -3.62 active; #4 3.98 active; #5 -3.57 active; #6 -4.23 active

Reformatted: 7 of the entries above
| Gene | reagent | TNF reporter z-score, mean | call |
| --- | --- | --- | --- |
| Rps6kb1 (GeneID 72508) | 3 | -5.02 | active |
| Rps6kb1 (GeneID 72508) | 4 | 6.08 | active |
| Rps6kb1 (GeneID 72508) | 5 | 0.433 | inactive |
| Rps6kb1 (GeneID 72508) | 6 | -0.0889 | inactive |
| Vamp1 (GeneID 22317) | 1 | -0.806 | inactive |
| Vamp1 (GeneID 22317) | 2 | -4.16 | active |
| Vamp1 (GeneID 22317) | 3 | -5.08 | active |
